Experimental data published in PubChem BioAssay AID624297 (National Center for Advancing Translational Sciences (NCATS), 2012).
The whole screen tested about 340,000 compounds, of which about 6,200 (1.8%) were called active. The inconclusive results got no clear call from the source; some entries with a clear call stand among them for comparison. The call rests on the fitted dose curve; in most records, active means well fitted activation curve with a large enough effect; inconclusive means small, poorly fitted or top-dose-only effect; inactive means no such curve, though single readings can be large or run the other way. Potencies beside an inconclusive call are fits to weak or partial responses and may not hold up.

Test: A quantitative high throughput screen for small molecules that induce DNA re-replication in SW480 colon adenocarcinoma cells. Further: nearly all actives have a fitted effect of over 55% in size. On re-replication activation: % of control where 0% means no effect.
Conditions: Hoechst DNA content imaging, 48 h; re-replication activation: at 46.1 µM (top of the series) unless noted
In short: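 Image-based DNA-content assay: after two days of treatment, nuclei were labelled with the DNA dye Hoechst and imaged, and hits were compounds raising the count of nuclei showing high fluorescence intensity.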
Potency means the concentration at half of the fitted maximal effect.

SMILES | Potency | re-replication activation
COc1ccc(S(=O)(=O)N2CCCC(C(=O)NC3CC3)C2)cc1OC (stereo not drawn) | inconclusive: 29.1 µM [activator, partial curve, poor fit] | 
N#CCC(=O)N/N=C/c1cn(Cc2ccc(Cl)c(Cl)c2)c2ccccc12 | inconclusive: 29.1 µM [activator, single point] | 
CN(C)c1ccc(/C=C(/NC(=O)c2ccccc2)C(=O)NCCCn2ccnc2)cc1 |  | inactive: -4.17%
O=C(O)c1cc(NC(=O)C2CCCO2)cc(NC(=O)C2CCCO2)c1 (stereo not drawn) | inconclusive: 3.66 µM [activator, full curve, poor fit] | 
COc1ccccc1CNC(=O)COC(=O)CC1CC2CCC1C2 (stereo not drawn) |  | inactive: 2.11%
O=C1CCN(CCc2ccccc2)CCN1[C@H](COc1ccccc1)Cc1ccccc1 | inconclusive: 4.61 µM [activator, full curve, poor fit] | 
CCN1C(=O)[C@@H]2[C@@H](c3ccc(-c4ccc(OC)cc4)c(OC)c3)N3CCCC[C@@]3(C(=O)OC)[C@@H]2C1=O | inconclusive: 0.092 µM [activator, full curve, poor fit] | 
COc1ccc(C)cc1NC(=O)CCCN1C(=S)NC(C)(C)CC1C (stereo not drawn) |  | inactive: -0.0356%
CNc1nnc(Sc2ncccc2[N+](=O)[O-])s1 | inconclusive: 20.6 µM [activator, single point] | 
CCOC(=O)Cn1cc(/C=C/[N+](=O)[O-])c2ccccc21 | active: 20.6 µM | 
O=C(/C=C/c1cccs1)NC(=S)NNC(=O)c1ccccc1O | inconclusive: 20.6 µM [activator, single point] | 
Cc1cccc(C2(c3cccc(C)c3)OC(=O)c3ccccc32)c1 | inconclusive: 32.6 µM [activator, partial curve, poor fit] | 
CC1CCC/C(=N/Nc2nc3ccccc3s2)C1 (stereo not drawn) |  | inactive: 3.34%
CCOc1ccc(-c2csc3nc[nH]c(=O)c23)cc1 |  | inactive: -3.91%
O=C(C1CCCN(c2nnc(-n3cccc3)s2)C1)N1CCN(c2ccccc2)CC1 (stereo not drawn) | inconclusive: 0.116 µM [activator, full curve, poor fit] | 
COc1ccc(S(=O)(=O)Nc2cc3c4c(oc3c3ccccc23)CCCC4=O)cc1 | inconclusive: 3.66 µM [activator, full curve, poor fit] | 
CC(=O)C(C(C)=O)c1cc(NS(=O)(=O)c2ccccc2)ccc1NS(=O)(=O)c1ccccc1 | inconclusive: 1 µM [activator, partial curve, poor fit] | 
CCCCNCc1cc(Cl)c(OCCC)c(OCC)c1 | inconclusive: 29.1 µM [activator, partial curve, poor fit] | 
Cn1c(=O)c2c(nc(NCCc3ccccc3)n2Cc2ccc(F)cc2)n(C)c1=O |  | inactive: 6.62%
COc1cc2c(cc1OC)CN(C(=O)c1cccs1)CC2 |  | inactive: -6.98%
CCC(=O)Nc1c(S(=O)(=O)c2ccc(C)cc2)c2nc3ccccc3nc2n1C(C)c1ccccc1 (stereo not drawn) | inconclusive: 20.6 µM [activator, single point] | 
CC1=CC(C)(C)N2C(=O)C3(C(C#N)=C(N)Oc4cc(O)ccc43)c3cccc1c32 (stereo not drawn) | inconclusive: 1.46 µM [activator, partial curve, poor fit] | 
Cc1c(CC(=O)N2CCN(C(=O)C3COc4ccccc4O3)CC2)c(=O)oc2cc(O)cc(O)c12 (stereo not drawn) | inconclusive: 20.6 µM [activator, single point] | 
COC(=O)C1=C(C)NC(=S)NC1c1ccc(-c2cc(Cl)ccc2Cl)o1 (stereo not drawn) | inconclusive: 29.1 µM [activator, single point] | 
Cc1nc(NC(=O)c2cc3c(s2)CCCCC3)sc1C(=O)N(C)C |  | inactive: 3.66%

Record cards, as listed above.
COc1ccc(S(=O)(=O)N2CCCC(C(=O)NC3CC3)C2)cc1OC (stereo not drawn) is entered as Potency: inconclusive: 29.1 µM [activator, partial curve, poor fit]
COc1ccccc1CNC(=O)COC(=O)CC1CC2CCC1C2 (stereo not drawn) is entered as re-replication activation: inactive: 2.11%

Continued.

SMILES | Potency | re-replication activation
CC(Sc1nnc(-c2ccncc2)n1C)C(=O)NCC1CCCO1 (stereo not drawn) | inconclusive: 29.1 µM [activator, partial curve, poor fit] | 
CC(C)(C)c1ccc(/C=C2\Oc3c(ccc(O)c3CN3CCN(CCO)CC3)C2=O)cc1 | inconclusive: 32.6 µM [activator, partial curve, poor fit] | 
CSc1ccc(/C=C(\NC(=O)c2ccccc2)C(=O)NN)cc1 |  | inactive: 0.508%
COc1ccc(-c2csc3ncnc(N4CCN(C(=O)c5ccco5)CC4)c23)cc1 |  | inactive: 4.33%
CCN1C(=O)c2ccc(C(=O)Nc3ccc4c(c3)OCO4)cc2C1=O | inconclusive: 6.51 µM [activator, single point] | 
COCCNC(=O)C1CC(c2cccc([N+](=O)[O-])c2)=NO1 (stereo not drawn) | inconclusive: 0.103 µM [activator, full curve, poor fit] | 
O=c1[nH]c2cc3c(cc2cc1CN(CCCO)Cc1nnnn1Cc1ccc(F)cc1)OCO3 |  | inactive: -1%
CCOC(=O)N1CCN(C(=O)CSc2nc(CC)nc3c2c(=O)n(C)c(=O)n3C)CC1 | inconclusive: 16.4 µM [activator, partial curve, poor fit] | 
Cc1ccc(NC(=O)CSc2nc(N)cc(N)n2)cc1S(=O)(=O)N1CCOCC1 | active: 3.66 µM | 
CCOC(=O)C1CCN(CCC(=O)Nc2ccc(Br)cc2)CC1 | inconclusive: 0.82 µM [activator, partial curve, poor fit] | 
O=C(O)c1cc(Cl)ccc1NC(=O)C1CCCO1 (stereo not drawn) | inconclusive: 23.1 µM [activator, partial curve, poor fit] | 
O=C(Oc1c(Cl)cc(Cl)c2cccnc12)c1cccs1 | inconclusive: 29.1 µM [activator, single point] | 
CC(C)c1nnc(NC(=O)CSc2nnc(-c3ccco3)o2)s1 |  | inactive: -2.93%
O=C(/C=C/c1ccc(F)cc1)NC(=S)NC1CCCCC1 |  | inactive: 3.62%
CC(CC(=O)c1cccs1)CC(=O)c1cccs1 | active: 16.4 µM | 
COc1ccc(/C(C)=N/NC(=O)CNC(=O)c2cccs2)cc1OC |  | inactive: -174%
O=C1C(C2=NC(C(=O)O)C3C(=O)N(c4ccccc4)C(=O)C23)=C(O)c2ccccc21 (stereo not drawn) |  | inactive: -0.158%
Cc1ccc2nsnc2c1NC(=O)CCl | inconclusive: 23.1 µM [activator, single point] | 
C=CCn1cccc(/C=C/C(=O)c2ccc(C(C)(C)C)cc2)c1=S | inconclusive: 29.1 µM [activator, single point] | 
CCOC(=O)C1CCN(S(=O)(=O)c2ccc3c(c2)NC(=O)CS3)CC1 | inconclusive: 16.4 µM [activator, single point] | 
CSc1ccc(Cl)c(C(=O)Nc2ccc(C)cn2)c1 | active: 25.9 µM | 
Cc1nnc2c3ccccc3c(-c3cccc4ccccc34)nn12 |  | inactive: -1.66%
COc1ccccc1-n1cnnc1SCC(=O)NC1CCCCC1 |  | inactive: -17.2%
CC[C@@H]1CCCCc2ccccc2[C@H](C(=O)C[C@H](O)CC(C)=O)OC1=O |  | inactive: 6.2%
Cc1ccc(S(=O)(=O)N2CCN(c3ncnc4sccc34)CC2)cc1 |  | inactive: 1%

Among those listed so far, these contain fluorine.
SMILES | Potency | re-replication activation
Cn1c(=O)c2c(nc(NCCc3ccccc3)n2Cc2ccc(F)cc2)n(C)c1=O |  | inactive: 6.62%
O=c1[nH]c2cc3c(cc2cc1CN(CCCO)Cc1nnnn1Cc1ccc(F)cc1)OCO3 |  | inactive: -1%
O=C(/C=C/c1ccc(F)cc1)NC(=S)NC1CCCCC1 |  | inactive: 3.62%

The results go on.

SMILES | Potency | re-replication activation
C/C(Cl)=C\Cn1c(O)c(N=NC(N)=S)c2ccccc21 | inconclusive: 32.6 µM [activator, partial curve, poor fit] | 
COc1ccc(/C=N/NC(=O)c2sc(C)nc2C)cc1 | inconclusive: 23.1 µM [activator, single point] | 
C=CCNc1nc(N)c(C(=C(C#N)C#N)c2ccccc2)s1 | inconclusive: 29.1 µM [activator, partial curve, poor fit] | 
Cc1cc(C)c(C#N)c(SCC(O)COc2ccc(Br)cc2)n1 (stereo not drawn) |  | inactive: -82%
CCOC(=O)C1(CCOC)CCN(C(=O)Cc2ccsc2)CC1 | inconclusive: 14.6 µM [activator, single point] | 
O=C1CC(C(=O)N2CCc3ccccc32)CN1c1ccc(F)cc1 (stereo not drawn) |  | inactive: -5.99%
CSc1ccc(/C=C/C(=O)NC(=O)c2ccccc2O)cc1 |  | inactive: -2.98%
Cc1cc(C(=O)N/N=C/c2cccc([N+](=O)[O-])c2)c(C)n1-c1ccccc1 |  | inactive: -5.6%
Cc1onc(-c2c(F)cccc2Cl)c1C(=O)Nc1ccccc1N1CCOCC1 |  | inactive: -7.67%
CC(=O)N1N=C(c2cccc([N+](=O)[O-])c2)OC1c1ccccc1Cl (stereo not drawn) |  | inactive: -0.609%
O=S(=O)(NCC1(N2CCOCC2)CCCCC1)c1ccc(F)cc1 | inconclusive: 29.1 µM [activator, single point] | 
COc1ccccc1N/C=C(\C#N)c1nc2ccccc2[nH]1 |  | inactive: 18.1%
Cc1ccc(-n2c(SCC(=O)NCc3ccco3)nc3c(sc4ccccc43)c2=O)cc1 |  | inactive: -1.12%
COc1ccc([C@H]2CC(=O)C=C(c3ccc4c(c3)OCO4)C2)cc1OC | inconclusive: 29.1 µM [activator, partial curve, poor fit] | 
COC(=O)CCC(=O)NC(=S)Nc1sc(C)c(C)c1C(N)=O | inconclusive: 8.2 µM [activator, partial curve, poor fit] | 
CCCn1nc(C(=O)Nc2cc(S(=O)(=O)Nc3ccc(OC)cc3)ccc2O)c2ccccc2c1=O |  | inactive: -1.92%
C=C(C)C1CC=C(C)/C(=N/NC(=O)CCC(=O)Nc2ccccc2Cl)C1 (stereo not drawn) |  | inactive: 5.81%
CC(C)C(NC(=O)/C(=C\c1ccco1)NC(=O)c1ccco1)C(=O)O (stereo not drawn) | inconclusive: 29.1 µM [activator, single point] | 
CC1(C)O[C@@H]2[C@H](O1)[C@@H](COS(=O)(=O)O)O[C@H]2n1c(=S)[nH]c2c(=O)[nH]c(N)nc21 |  | inactive: 0.9%
CCOC(=O)c1c(O)c(Cl)c(C)[nH]c1=O |  | inactive: -14.9%
CO/N=C(/CS(=O)c1ccc(Br)cc1)c1ccc(OC)cc1 (stereo not drawn) | inconclusive: 23.1 µM [activator, single point] | 
Cc1ccc(S(=O)(=O)N2CC(C(=O)O)Oc3ccccc32)cc1 (stereo not drawn) |  | inactive: -1.92%
CCOC(=O)c1cnc(Nc2nc3ccccc3o2)nc1CN1CCN(C)CC1 | inconclusive: 29.1 µM [activator, single point] | 
